Experimental data from patent US12350344 (dated 2025).

Experiment: general procedure: solution-phase peptide synthesis; N-ethoxycarbonyl-2-ethoxy-1,2-dihydroquinoline
Conditions: conjugation step

Substance | conjugation yield
N-[4-(11,12-Didehydrodibenzo[b,f]azocin-5 (6H)-yl)-4-oxobutanoyl]glycylglycyl-L-prolyl-N-{4-[({[(11a′S)-11′-hydroxy-7′-methoxy-8′-(3-{[(11aS)-7-methoxy-2-(4-methoxyphenyl)-5-oxo-5,10,11,11a-tetrahydro-1H-pyrrolo[2,1-c][1,4]benzodiazepin-8-yl]oxy}propoxy)-5′-oxo-11′,11a′-dihydro-1′H-spiro[cyclopropane-1,2′-pyrrolo[2,1-c][1,4]benzodiazepine]-10′(5′H)-yl]carbonyl}oxy)methyl]phenyl}-L-leucinamide | 46%

Same assay, conditions: coupling step

Substance | step yield
N-[4-(11,12-Didehydrodibenzo[b,f]azocin-5 (6H)-yl)-4-oxobutanoyl]glycylglycyl-L-valyl-N^5-carbamoyl-N-{4-[({[(11a′S)-11′-hydroxy-7′-methoxy-8′-(3-{[(11aS)-7-methoxy-2-(4-methoxyphenyl)-5-oxo-5,10,11,11a-tetrahydro-1H-pyrrolo[2,1-c][1,4]benzodiazepin-8-yl]oxy}propoxy)-5′-oxo-11′,11a′-dihydro-1′H-spiro[cyclopropane-1,2′-pyrrolo[2,1-c][1,4]benzodiazepine]-10′(5′H)-yl]carbonyl}oxy)methyl]phenyl}-L-ornithinamide | 14%
N-[4-(11,12-Didehydrodibenzo[b,f]azocin-5 (6H)-yl)-4-oxobutanoyl]glycylglycyl-L-phenylalanyl-N-{4-[({[(11a′S)-11′-hydroxy-7′-methoxy-8′-(3- {[(11aS)-7-methoxy-2-(4-methoxyphenyl)-5-oxo-5,10,11,11a-tetrahydro-1H-pyrrolo[2,1-c][1,4]benzodiazepin-8-yl]oxy}propoxy)-5′-oxo-11′,11a′-dihydro-1′H-spiro[cyclopropane-1,2′-pyrrolo[2,1-c][1,4]benzodiazepine]-10′(5′H)-yl]carbonyl}oxy)methyl]phenyl}glycinamide | 33%
N-[4-(11,12-Didehydrodibenzo[b,f]azocin-5 (6H)-yl)-4-oxobutanoyl]glycylglycyl-L-valyl-N-{4-[({[(11a′S)-11′-hydroxy-7′-methoxy-8′-[(5-{[(11aS)-7-methoxy-2-methylidene-5-oxo-2,3,5,11a-tetrahydro-1H-pyrrolo[2,1-c][1,4]benzodiazepin-8-yl]oxy}pentyl)oxy]-5′-oxo-11′,11a′-dihydro-1′H-spiro[cyclopropane-1,2′-pyrrolo[2,1-c][1,4]benzodiazepine]-10′(5′H)-yl]carbonyl}oxy)methyl]phenyl}-L-alaninamide | 89%
N-[4-(11,12-Didehydrodibenzo[b,f]azocin-5 (6H)-yl)-4-oxobutanoyl]glycylglycyl-L-valyl-N-{4-[({[(11a′S)-11′-hydroxy-7′-methoxy-8′-(3-{[(11aS)-7-methoxy-5-oxo-2-(thiophen-3-yl)-5,10,11,11a-tetrahydro-1H-pyrrolo[2,1-c][1,4]benzodiazepin-8-yl]oxy}propoxy)-5′-oxo-11′,11a′-dihydro-1′H-spiro[cyclopropane-1,2′-pyrrolo[2,1-c][1,4]benzodiazepine]-10′(5′H)-yl]carbonyl}oxy)methyl]phenyl}-L-alaninamide | 24%
N-[4-(11,12-Didehydrodibenzo[b,f]azocin-5 (6H)-yl)-4-oxobutanoyl]glycylglycyl-L-valyl-N-{4-[({[(11a′S)-11′-hydroxy-8′-[(5-{[(11aS)-2-(hydroxymethyl)-7-methoxy-5-oxo-5,11a-dihydro-1H-pyrrolo[2,1-c][1,4]benzodiazepin-8-yl]oxy}pentyl)oxy]-7′-methoxy-5′-oxo-11′,11a′-dihydro-1′H-spiro[cyclopropane-1,2′-pyrrolo[2,1-c][1,4]benzodiazepine]-10′(5′H)-yl]carbonyl}oxy)methyl]phenyl}-L-alaninamide | 48%
N-[4-(11,12-Didehydrodibenzo[b,f]azocin-5 (6H)-yl)-4-oxobutanoyl]glycylglycyl-L-valyl-N-{4-[({[(11a′S)-11′-hydroxy-7′-methoxy-8′-[(5-{[(11a′S)-7′-methoxy-5′-oxo-5′,10′,11′,11a′-tetrahydro-1′H-spiro[cyclopropane-1,2′-pyrrolo[2,1-c][1,4]benzodiazepine]-8′-yl]oxy}pentyl)oxy]-5′-oxo-11′,11a′-dihydro-1′H-spiro[cyclopropane-1,2′-pyrrolo[2,1-c][1,4]benzodiazepine]-10′(5′H)-yl]carbonyl}oxy)methyl]phenyl}-L-alaninamide | 63%
N-[4-(11,12-Didehydrodibenzo[b,f]azocin-5 (6H)-yl)-4-oxobutanoyl]glycylglycyl-L-valyll-N-{4-[({[(11a′S)-11′-hydroxy-7′-methoxy-8′-(3-{[(11aS)-7-methoxy-5-oxo-2-phenyl-5,10,11,11a-tetrahydro-1H-pyrrolo[2,1-c][1,4]benzodiazepin-8-yl]oxy}propoxy)-5′-oxo-11′,11a′-dihydro-1′H-spiro[cyclopropane-1,2′-pyrrolo[2,1-c][1,4]benzodiazepine]-10′(5′H)-yl]carbonyl}oxo)methyl]phenyl}-L-alaninamide | 36%
N-[4-(11,12-Didehydrodibenzo[b,f]azocin-5 (6H)-yl)-4-oxobutanoyl]glycylglycyl-L-valyl-N-{4-[({[(11a′S)-11′-hydroxy-7′-methoxy-8′-(3-{[7-methoxy-2-(6-methyl-3-pyridinyl)-5-oxo-5,10,11,11a-tetrahydro-1H-pyrrolo[2,1-c][1,4]benzodiazepin-8-yl]oxy}propoxy)-5′-oxo-11′,11a′-dihydro-1′H-spiro[cyclopropane-1,2′-pyrrolo[2,1-c][1,4]benzodiazepine]-10′(5′H)-yl]carbonyl}oxy)methyl]phenyl}-L-alaninamide | 11%
N-[4-(11,12-Didehydrodibenzo[b,f]azocin-5(6H)-yl)-4-oxobutanoyl]glycylglycyl-L-valyl-N-[4-({[(11′aS)-11′-hydroxy-7′-methoxy-8′-(3-{[(11aS)-7-methoxy-2-(4-methoxyphenyl)-5-oxo-5,10,11,11a-tetrahydro-1H-pyrrolo[2,1-c][1,4]benzodiazepin-8-yl]oxy}propoxy)-5′-oxo-11′,11′a-dihydro-1′H,3′H-spiro[cyclopropane-1,2′-pyrrolo[2,1-c][1,4]benzodiazepine]-10′(5′H)-carbonyl]oxy}methyl)phenyl]-L-alaninamide | 64%
N-[4-(11,12-Didehydrodibenzo[b,f]azocin-5 (6H)-yl)-4-oxobutanoyl]glycylglycyl-L-valyl-N-{4-[({[(11a′S)-11′-hydroxy-7′-methoxy-8′-(3-{[(11aS)-7-methoxy-2-(6-methoxynaphthalen-2-yl)-5-oxo-5,10,11,11a-tetrahydro-1H-pyrrolo[2,1-c][1,4]benzodiazepin-8-yl]oxy}propoxy)-5′-oxo-11′,11a′-dihydro-1′H-spiro[cyclopropane-1,2′-pyrrolo[2,1-c][1,4]benzodiazepine]-10′(5′H)-yl]carbonyl}oxy)methyl]phenyl}-L-alaninamide | 54%
N-[4-(11,12-Didehydrodibenzo[b,f]azocin-5 (6H)-yl)-4-oxobutanoyl]glycylglycyl-L-valyl-N-{4-[({[(11a′S)-8′-(3-{[(11aS)-2-(4-fluorophenyl)-7-methoxy-5-oxo-5,10,11,11a-tetrahydro-1H-pyrrolo[2,1-c][1,4]benzodiazepin-8-yl]oxy}propoxy)-11′-hydroxy-7′-methoxy-5′-oxo-11′,11a′-dihydro-1′H-spiro[cyclopropane-1,2′-pyrrolo[2,1-c][1,4]benzodiazepine]-10′(5′H)-yl]carbonyl}oxy)methyl]phenyl}-L-alaninamide | 45%
N-[4-(11,12-Didehydrodibenzo[b,f]azocin-5 (6H)-yl)-4-oxobutanoyl]glycylglycyl-L-valyl-N-{4-[({[(11a′S)-11′-hydroxy-7′-methoxy-8′-(3-{[(11a′S)-7′-methoxy-5′-oxo-5′,11a′-dihydro-1′H-spiro[cyclopropane-1,2′-pyrrolo[2,1-c][1,4]benzodiazepine]-8′-yl]oxy}propoxy)-5′-oxo-11′,11a′-dihydro-1′H-spiro[cyclopropane-1,2′-pyrrolo[2,1-c][1,4]benzodiazepine]-10′(5′H)-yl]carbonyl}oxy)methyl]phenyl}-L-alaninamide | 16%
N-[4-(11,12-Didehydrodibenzo[b,f]azocin-5 (6H)-yl)-4-oxobutanoyl]glycylglycyl-L-valyl-N-{4-[({[(11a′S)-8′-(3-{[(11aS)-2-(3,4-dimethoxyphenyl)-7-methoxy-5-oxo-5,10,11,11a-tetrahydro-1H-pyrrolo[2,1-c][1,4]benzodiazepin-8-yl]oxy}propoxy)-11′-hydroxy-7′-methoxy-5′-oxo-11′,11a′-dihydro-1′H-spiro[cyclopropane-1,2′-pyrrolo[2,1-c][1,4]benzodiazepine]-10′(5′H)-yl]carbonyl}oxy)methyl]phenyl}-L-alaninamide | 58%
N-[(11,12-Didehydro-5,6-dihydrodibenzo[a,e][8]annulen-5-yloxy)carbonyl]glycylglycyl-L-valyl-N-{4-[({[(11a′S)-11′-hydroxy-7′-methoxy-8′-(3-{[(11aS)-7-methoxy-2-(4-methoxyphenyl)-5-oxo-5,10,11,11a-tetrahydro-1H-pyrrolo[2,1-c][1,4]benzodiazepin-8-yl]oxy}propoxy)-5′-oxo-11′,11a′-dihydro-1′H-spiro[cyclopropane-1,2′-pyrrolo[2,1-c][1,4]benzodiazepine]-10′(5′H)-yl]carbonyl}oxy)methyl]phenyl}-L-alaninamide | 87%

Same assay, conditions: late stage modification step

Substance | step yield
N-[4-(11,12-Didehydrodibenzo[b,f]azocin-5 (6H)-yl)-4-oxobutanoyl]glycylglycyl-L-valyl-N-{4-[({[(11a′S)-11′-hydroxy-8′-[3-({(11aS)-2-[4-(hydroxymethyl)phenyl]-7-methoxy-5-oxo-5,10,11,11a-tetrahydro-1H-pyrrolo[2,1-c][1,4]benzodiazepin-8-yl}oxy)propoxy]-7′-methoxy-5′-oxo-11′,11a′-dihydro-1′H-spiro[cyclopropane-1,2′-pyrrolo[2,1-c][1,4]benzodiazepine]-10′(5′H)-yl]carbonyl}oxy)methyl]phenyl}-L-alaninamide | 85%
